Measured values from PubChem BioAssay AID504444 (National Center for Advancing Translational Sciences (NCATS), 2011).
Screen size: about 360,000 compounds; about 7,500 (2.1%) were called active. Inconclusive results, whose numbers are uncertain, are shown with a selection of clear calls. The call rests on the fitted dose curve; in most records, active means well fitted inhibition curve with a large enough effect; inconclusive means small, poorly fitted or top-dose-only effect, or effect the other way; inactive means flat fitted curve, though single readings scatter. Where the call is inconclusive, the potency comes from a doubtful curve fit.

experiment: Nrf2 qHTS screen for inhibitors; conditions: A549 ARE-Fluc reporter, luciferase luminescence, 18-24 h; activity change, negative = inhibition: at 46 µM (top of the series); further: nearly all actives have a fitted effect of over 60% in size
Outline: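 Quantitative HTS in A549 cells stably bearing an antioxidant response element-firefly luciferase construct. Inhibition of Nrf2-driven transcription was scored by luminescence after 18-24 h of compound exposure at 37 °C.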
On the % scale 0 is the no-effect control and ±100 the full control effect; potency means the concentration at half of the fitted maximal effect.

| SMILES | Potency | activity change, negative = inhibition |
| --- | --- | --- |
| CCOc1ccc(N(CC(=O)NCCSc2ccccn2)S(=O)(=O)c2ccc(Cl)cc2)cc1 | inconclusive: 32.6 µM [falling, single point] |  |
| COC(=O)c1cc(C(=O)OC)cc(S(=O)(=O)Nc2ccc(Cl)c(N)c2)c1 | inconclusive: 18.4 µM [falling, single point] |  |
| O=C1CN(C(=O)COC(=O)c2cccc(OCc3ccccc3)c2)c2ccccc2N1 | inconclusive: 25.9 µM [activator, single point] |  |
| COc1ccc(CNC(=O)C2CCCN(S(=O)(=O)N(C)c3ccc(F)cc3)C2)cc1OC (centres undefined) | active: 23.1 µM |  |
| COCCN(CC(=O)NC1CCCCC1)C(=O)/C=C/C(=O)c1ccc(OC)cc1O | inconclusive: 29.1 µM [falling, single point] |  |
| CCCc1cc(=O)oc2c3c(c4c(c12)OC(C)(C)C=C4)OC(C)C(C)C3O (centres undefined) | inconclusive: 16.4 µM [falling, single point] |  |
| COc1ccc(S(=O)(=O)NCC(c2cccnc2)N2CCN(c3ccc(F)cc3)CC2)cc1C (centres undefined) | inconclusive: 23.1 µM [falling, single point] |  |
| COc1ccc(-c2c(C)nc3c(-c4ccsc4)cnn3c2N)cc1 | inconclusive: 29.1 µM [activator, single point] |  |
| CCOc1ccc(S(=O)(=O)NCCC(=O)OCC(=O)Nc2cc(C)on2)cc1 |  | inactive: 1.64% |
| CC1(C)N=C(N)N=C(N)N1c1cccc(C(=O)O)c1 | inconclusive: 14.6 µM [activator, partial curve] |  |
| Cc1ccc(-c2cn3cc([N+](=O)[O-])ccc3n2)cc1 | inconclusive: 32.6 µM [falling, single point] |  |
| Cc1cccc(OCC(=O)Nc2ccccc2F)c1 | inconclusive: 20.6 µM [activator, partial curve] |  |
| COc1cccc(CN(C)C(=O)c2cccc(S(=O)(=O)N3CCN(Cc4ccccc4)CC3)c2)c1OC | active: 10.3 µM |  |
| CCOC(=O)c1cccc(NC(=O)c2ccc3c(c2)nnn3CC)c1 | inconclusive: 0.731 µM [falling, full curve, poor fit] |  |
| CN(C(=O)c1ccc(-c2nn(C)c(=O)c3ccccc23)cc1)c1ccccc1 | inconclusive: 18.4 µM [falling, partial curve, poor fit] |  |
| Cc1ccc(C)c(Cn2c(=O)n(CC3CCC(C(=O)N4CCOCC4)CC3)c(=O)c3sccc32)c1 (centres undefined) |  | inactive: -4.45% |
| COc1ccc(CNc2nc3nc4c(c(=O)n3[nH]2)CCC4)cc1 | inconclusive: 0.058 µM [activator, full curve, poor fit] |  |
| COc1ccc(NS(=O)(=O)c2ccc(-c3cnc(C4CC4)o3)cc2)cc1OC | inconclusive: 4.11 µM [falling, partial curve] |  |
| CCOc1ccc(NC(=O)C2CC(=O)N(CC)C(=Nc3ccc4c(c3)OCO4)S2)cc1 (centres undefined) | inconclusive: 3.26 µM [falling, partial curve, poor fit] |  |
| Cc1ccc(C(=O)N/C(=C/c2ccco2)C(=O)NCCc2c[nH]c3ccccc23)cc1 | inconclusive: 29.1 µM [activator, single point] |  |

| SMILES | Potency | activity change, negative = inhibition |
| --- | --- | --- |
| COc1cccc(-c2nnc(SCC(=O)N3CCCCC3)o2)c1 | inconclusive: 0.517 µM [activator, full curve, poor fit] |  |
| Cc1ccc(C(=O)CSc2nsc(C)c2C#N)cc1 | inconclusive: 18.4 µM [activator, single point] |  |
| CCn1c(=O)[nH]c(=O)c2c(N)c(C(=O)c3cc(F)ccc3F)sc21 | inconclusive: 9.2 µM [falling, partial curve, poor fit] |  |
| COc1cc(-c2nc3ccc4ccccc4c3c3c2CCC3)cc(OC)c1OC | inconclusive: 14.6 µM [falling, partial curve] |  |
| O=C(CN1CCN(Cc2ccccc2)CC1)N/N=C/c1ccccc1F |  | inactive: -8.41% |
| Cc1ncc([N+](=O)[O-])n1CC(=O)Nc1ccc(F)cc1F | inconclusive: 5.8 µM [activator, partial curve, poor fit] |  |
| CN1/C(=C\C(=O)COC(=O)Cn2nnc(-c3ccccc3)n2)C(C)(C)c2ccccc21 | inconclusive: 25.9 µM [falling, single point] |  |
| COc1ccc(-c2ccc(SCC(=O)NCc3ccco3)nn2)cc1 | inconclusive: 18.4 µM [activator, partial curve, poor fit] |  |
| CCCCOc1ccc2c(C)cc(=O)oc2c1OCCCC | inconclusive: 29.1 µM [falling, single point] |  |
| Cc1c(CC(=O)N[C@@H](C)C(=O)O)c(=O)oc2c(C)c3occ(-c4ccccc4)c3cc12 | inconclusive: 29.1 µM [activator, single point] |  |
| CCOC(=O)c1ccccc1Nc1nc2ccc(C)cc2n2nnnc12 |  | inactive: 9.58% |
| O=C(Nc1nc(-c2ccccc2)cs1)C1CCCCN1S(=O)(=O)c1ccc(Cl)cc1 (centres undefined) | inconclusive: 13 µM [falling, partial curve, poor fit] |  |
| Cc1ccc2cc(C)c3nnc(SCc4ccc(C(=O)O)cc4)n3c2c1C | inconclusive: 20.6 µM [falling, partial curve, poor fit] |  |
| CC(=O)c1sc(NC(=O)C2CCN(C(=O)c3ccc(F)cc3)CC2)nc1-c1ccccc1 | inconclusive: 18.4 µM [falling, single point] |  |
| CCN1C(=O)CCN(C2CCCC2)c2nc(Nc3ccc(C(=O)NC4CCN(C)CC4)cc3OC)ncc21 | inconclusive: 6.51 µM [falling, partial curve, poor fit] |  |
| CCn1c2ccccc2c2cc(NC(=O)CSc3nnc(-c4ccccc4)o3)ccc21 | inconclusive: 20.6 µM [falling, partial curve, poor fit] |  |
| CCCN1CCN(C(=O)C2CCN(S(=O)(=O)c3c(C)noc3/C=C/c3ccc(C)cc3)CC2)CC1 |  | inactive: 2.94% |
| CC(OC(=O)c1ccc2c(c1)OCCO2)C(=O)NC1CCCCC1C (centres undefined) | active: 18.4 µM |  |
| Cc1ccc(NC(=O)Cn2c(=O)c(C(F)(F)F)nc3ccccc32)cc1C | inconclusive: 29.1 µM [activator, single point] |  |

A few values from above.
In Potency, CC(=O)c1sc(NC(=O)C2CCN(C(=O)c3ccc(F)cc3)CC2)nc1-c1ccccc1 has inconclusive: 18.4 µM [falling, single point]
In Potency, CCCCOc1ccc2c(C)cc(=O)oc2c1OCCCC has inconclusive: 29.1 µM [falling, single point]
In activity change, negative = inhibition, O=C(CN1CCN(Cc2ccccc2)CC1)N/N=C/c1ccccc1F has inactive: -8.41%
